# Measurements published in paper PMC9258116.
# Protein sequences, listed by entry. Tags and fused reporters are not part of them.
# UniProt Q63943: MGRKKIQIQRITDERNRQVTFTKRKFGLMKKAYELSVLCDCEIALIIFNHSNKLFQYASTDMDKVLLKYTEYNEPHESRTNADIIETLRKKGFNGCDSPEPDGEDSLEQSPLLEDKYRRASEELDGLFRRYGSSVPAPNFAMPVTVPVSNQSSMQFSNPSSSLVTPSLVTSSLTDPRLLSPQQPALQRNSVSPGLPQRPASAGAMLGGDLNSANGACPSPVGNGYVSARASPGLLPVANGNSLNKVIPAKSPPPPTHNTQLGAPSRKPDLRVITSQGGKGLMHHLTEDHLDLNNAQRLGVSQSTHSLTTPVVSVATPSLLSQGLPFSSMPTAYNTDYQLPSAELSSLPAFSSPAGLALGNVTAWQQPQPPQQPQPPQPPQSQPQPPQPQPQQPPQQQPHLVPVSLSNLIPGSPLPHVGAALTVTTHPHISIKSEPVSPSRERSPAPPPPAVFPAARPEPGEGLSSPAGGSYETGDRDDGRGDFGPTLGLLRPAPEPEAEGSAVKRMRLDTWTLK
# UniProt Q64518: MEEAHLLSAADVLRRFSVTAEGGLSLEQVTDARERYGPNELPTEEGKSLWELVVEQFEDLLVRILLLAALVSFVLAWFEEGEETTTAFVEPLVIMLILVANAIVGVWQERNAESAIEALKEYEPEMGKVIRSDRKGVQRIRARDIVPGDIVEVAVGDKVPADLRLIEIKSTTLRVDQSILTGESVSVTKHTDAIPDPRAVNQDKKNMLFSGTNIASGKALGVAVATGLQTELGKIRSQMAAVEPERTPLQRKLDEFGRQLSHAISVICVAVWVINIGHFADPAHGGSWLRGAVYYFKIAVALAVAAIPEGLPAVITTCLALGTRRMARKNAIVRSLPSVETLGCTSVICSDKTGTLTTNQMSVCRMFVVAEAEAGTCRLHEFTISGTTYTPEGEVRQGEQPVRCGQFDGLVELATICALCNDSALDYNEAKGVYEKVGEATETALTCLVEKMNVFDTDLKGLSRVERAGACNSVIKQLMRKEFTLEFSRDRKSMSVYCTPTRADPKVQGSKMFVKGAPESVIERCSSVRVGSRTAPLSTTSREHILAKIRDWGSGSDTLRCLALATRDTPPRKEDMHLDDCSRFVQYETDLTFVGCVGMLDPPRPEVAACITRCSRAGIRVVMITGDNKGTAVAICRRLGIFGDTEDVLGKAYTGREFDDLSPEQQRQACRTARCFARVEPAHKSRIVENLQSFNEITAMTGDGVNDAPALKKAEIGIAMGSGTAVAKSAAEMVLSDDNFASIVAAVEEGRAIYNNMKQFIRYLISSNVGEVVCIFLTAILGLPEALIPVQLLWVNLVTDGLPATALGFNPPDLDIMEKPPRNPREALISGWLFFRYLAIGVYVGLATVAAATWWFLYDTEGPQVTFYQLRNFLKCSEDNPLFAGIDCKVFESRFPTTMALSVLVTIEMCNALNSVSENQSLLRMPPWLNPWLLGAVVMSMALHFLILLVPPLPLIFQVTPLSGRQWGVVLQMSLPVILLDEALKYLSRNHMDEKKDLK
# Results are given in words; binding and its absence hold for the method and conditions named. Binding seen in cells or lysates may run through a third protein. These calls come from enrichment with a bait or labelling near it, and not all partners need be listed.
# Biological target: myocyte enhancer factor 2D (Mef2d) (mouse (endogenous in RAW264.7)) (UniProt Q63943)
# Assay: affinity purification with mass spectrometry; co-IP from RAW264.7 protein extract (high-glucose culture), pre-cleared with Protein A/G Plus Agarose; 2 ug rabbit anti-mouse Mef2d antibody to 500 ug extract overnight at 4 C, agarose 2 h at 4 C; SDS-PAGE, in-gel digestion, nano-UPLC Q Exactive HFX, MaxQuant
substance,measurement,value
ATPase sarcoplasmic/endoplasmic reticulum Ca2+ transporting 3 (Atp2a3) (from UniProt Q64518 1-999),binding,binds
